In paper PMC3707915:
Results are given in words; binding and its absence hold for the method and conditions named. Binding seen in cells or lysates may run through a third protein. These calls come from enrichment with a bait or labelling near it, and not all partners need be listed.

Protein sequences, listed by entry. Tags and fused reporters are not part of them. Lines headed by an entry give the natural chain unless they say otherwise; changes in a name come on top.
UniProt P39938: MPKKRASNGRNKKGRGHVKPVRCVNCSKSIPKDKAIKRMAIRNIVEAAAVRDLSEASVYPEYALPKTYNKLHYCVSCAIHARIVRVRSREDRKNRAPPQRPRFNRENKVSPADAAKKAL
UniProt P53742: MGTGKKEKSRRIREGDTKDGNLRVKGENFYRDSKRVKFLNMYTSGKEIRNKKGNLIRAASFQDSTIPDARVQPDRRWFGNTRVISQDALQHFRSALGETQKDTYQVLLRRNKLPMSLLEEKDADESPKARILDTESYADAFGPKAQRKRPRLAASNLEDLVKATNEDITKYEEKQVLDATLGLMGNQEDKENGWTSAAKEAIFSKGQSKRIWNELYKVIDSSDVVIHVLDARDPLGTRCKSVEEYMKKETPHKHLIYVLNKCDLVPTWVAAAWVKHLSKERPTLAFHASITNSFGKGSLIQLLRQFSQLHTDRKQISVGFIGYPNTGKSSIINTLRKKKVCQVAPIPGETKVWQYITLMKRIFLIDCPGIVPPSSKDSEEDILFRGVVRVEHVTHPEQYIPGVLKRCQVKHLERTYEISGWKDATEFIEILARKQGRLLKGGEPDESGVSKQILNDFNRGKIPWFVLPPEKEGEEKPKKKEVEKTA

What was measured:
[1] = target: rpS26-FLAG (S. cerevisiae) (UniProt P39938); experiment: affinity purification with mass spectrometry; rpS26-FLAG and associated 80S ribosomes purified in one step from total yeast cellular extract on anti-FLAG M2 sepharose beads, 1 h at 4°C, MB buffer with 0.5% Triton X-100 and 0.1% Tween; eluates compared pair wise with LSU precursor particles by semi-quantitative LC-MS/MS with iTRAQ reagents
[2] = target: T1, Arx1-TAP (S. cerevisiae) (UniProt Q03862); experiment: affinity purification with mass spectrometry; TAP-tagged LSU biogenesis factor and associated pre-ribosomal particles purified in one step from total yeast cellular extract on rabbit IgG coupled magnetic beads, 1 h at 4°C, MB buffer (20 mM Tris HCl pH 8, 200 or 300 mM KCl, 5 mM MgOAc) with 0.5% Triton X-100 and 0.1% Tween 20; eluates compared pair wise by semi-quantitative LC-MS/MS with iTRAQ reagents; for Nog1-, Nog2- and Rsa4-TAP wild type against strains in which RPL25, RPL2, RPL43 or RPL21 was shut down for 4 h in glucose
T1 sequence: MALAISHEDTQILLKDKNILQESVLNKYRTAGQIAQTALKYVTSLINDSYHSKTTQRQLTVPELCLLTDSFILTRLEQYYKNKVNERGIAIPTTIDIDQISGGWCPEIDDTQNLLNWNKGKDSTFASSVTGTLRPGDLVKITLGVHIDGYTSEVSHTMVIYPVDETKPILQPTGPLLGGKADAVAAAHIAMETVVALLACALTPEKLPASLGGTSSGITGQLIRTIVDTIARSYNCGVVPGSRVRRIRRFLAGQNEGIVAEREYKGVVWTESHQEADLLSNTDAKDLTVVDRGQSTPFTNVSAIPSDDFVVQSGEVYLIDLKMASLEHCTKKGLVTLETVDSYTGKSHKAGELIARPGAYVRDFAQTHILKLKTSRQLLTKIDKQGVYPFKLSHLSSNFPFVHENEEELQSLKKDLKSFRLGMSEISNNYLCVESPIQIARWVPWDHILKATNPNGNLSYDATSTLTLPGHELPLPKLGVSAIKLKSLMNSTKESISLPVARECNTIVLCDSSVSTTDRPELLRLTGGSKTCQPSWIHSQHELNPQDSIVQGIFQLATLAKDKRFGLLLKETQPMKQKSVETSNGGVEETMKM

[3] = target: T2, Nog1-TAP (S. cerevisiae) (UniProt Q02892); experiment: as above
T2 sequence: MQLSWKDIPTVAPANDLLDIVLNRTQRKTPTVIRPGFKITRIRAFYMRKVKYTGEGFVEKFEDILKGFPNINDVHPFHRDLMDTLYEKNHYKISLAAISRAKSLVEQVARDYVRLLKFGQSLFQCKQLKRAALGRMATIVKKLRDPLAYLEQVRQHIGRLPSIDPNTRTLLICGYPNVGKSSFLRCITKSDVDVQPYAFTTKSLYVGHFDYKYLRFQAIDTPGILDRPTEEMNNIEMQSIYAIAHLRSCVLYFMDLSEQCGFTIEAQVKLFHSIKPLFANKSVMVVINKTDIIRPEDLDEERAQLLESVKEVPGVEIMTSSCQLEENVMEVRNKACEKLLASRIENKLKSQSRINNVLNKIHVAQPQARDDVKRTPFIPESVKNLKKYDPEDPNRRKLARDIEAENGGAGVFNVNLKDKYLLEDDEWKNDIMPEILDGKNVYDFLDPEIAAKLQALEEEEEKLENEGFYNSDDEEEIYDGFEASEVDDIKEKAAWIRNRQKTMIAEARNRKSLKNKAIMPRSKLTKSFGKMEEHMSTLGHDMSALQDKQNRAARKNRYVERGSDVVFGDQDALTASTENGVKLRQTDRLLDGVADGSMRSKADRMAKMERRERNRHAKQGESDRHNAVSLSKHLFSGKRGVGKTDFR

[4] = target: Nog2-TAP (S. cerevisiae) (UniProt P53742); experiment: as above
[5] = target: T3, Rsa4-TAP (S. cerevisiae) (UniProt P25382); experiment: as above
T3 sequence: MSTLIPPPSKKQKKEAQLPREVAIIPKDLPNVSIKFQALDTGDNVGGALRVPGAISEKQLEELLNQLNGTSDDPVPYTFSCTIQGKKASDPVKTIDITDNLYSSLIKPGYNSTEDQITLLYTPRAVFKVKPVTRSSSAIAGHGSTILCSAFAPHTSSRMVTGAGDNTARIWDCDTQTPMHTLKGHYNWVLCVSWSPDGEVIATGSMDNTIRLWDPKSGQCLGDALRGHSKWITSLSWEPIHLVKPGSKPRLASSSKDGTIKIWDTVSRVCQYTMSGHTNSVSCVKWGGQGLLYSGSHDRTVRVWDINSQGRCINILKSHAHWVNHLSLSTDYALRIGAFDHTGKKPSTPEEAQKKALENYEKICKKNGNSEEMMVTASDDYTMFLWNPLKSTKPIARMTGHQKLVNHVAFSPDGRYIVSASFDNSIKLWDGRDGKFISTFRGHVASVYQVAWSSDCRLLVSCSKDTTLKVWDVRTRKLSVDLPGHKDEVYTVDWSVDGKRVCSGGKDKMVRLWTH

Measured: binding

B1: rpL10 (protein, UniProt P41805 1-221)
chain: MARRPARCYRYQKNKPYPKSRYNRAVPDSKIRIYDLGKKKATVDEFPLCVHLVSNELEQLSSEALEAARICANKYMTTVSGRDAFHLRVRVHPFHVLRINKMLSCAGADRLQQGMRGAWGKPHGLAARVDIGQIIFSVRTKDSNKDVVVEGLRRARYKFPGQQKIILSKKWGFTNLDRPEYLKKREAGEVKDDGAFVKFLSKKGSLENNIREFPEYFAAQA
binds: [1] | [2] | [3] | [4] | [5]

B2: Nop53 (protein, UniProt Q12080 1-455)
chain: MAPTNLTKKPSQYKQSSRKGKKAWRKNIDLSDVEQYMEKKIDHEITHGTSDITSLQNDALFHVDVEGDEILKNKLIKRKQIKKVLKSKEILDAVKTNSKIAALNHHKNSSGNPNKIQGVSKHELKKLMALAGRVHGESKIKNRVAKDGLVKTTAGDLWGEESNSKKQKVKLPSGIKLDVEKKDQIPEELLKKSTTSWSTASVRPSTLDIEPIAVKEFTEIPHAGKSYNPNNKAWSELINKEYKEEKAREDERIALEKYKERIRHLMETLDDNEEEESSSNEEEEEEEEENENENESTQCSGSDKEIKLSINKPVKNKKKTKYQRNKAKRHEEKVKLQQELKELRQRVKDLEEVINSEETEILSAIESDSNKVKKSKKNKKHKLGTKYSVIDERLEIKFSDELSDSLRKLKPEGNLLYDTVRKLQSSGKVETRVPVRKGRKYKQKITEKWTHKDFK
binds: [3] | [4] | [5]

B3: Erb1 (protein, UniProt Q04660 1-807)
chain: MMAKNNKTTEAKMSKKRAASEESDVEEDEDKLLSVDGLIDAEASESDEDDDEYESAVEEKESSSDKEAQDDSDDDSDAELNKLLAEEEGDGEEDYDSSEFSDDTTSLTDRLSGVKLQTIVDPNIYSKYADGSDRIIKPEINPVYDSDDSDAETQNTIGNIPLSAYDEMPHIGYDINGKRIMRPAKGSALDQLLDSIELPEGWTGLLDKNSGSSLNLTKEELELISKIQRNEQTDDSINPYEPLIDWFTRHEEVMPLTAVPEPKRRFVPSKNEAKRVMKIVRAIREGRIIPPKKLKEMKEKEKIENYQYDLWGDSTETNDHVMHLRAPKLPPPTNEESYNPPEEYLLSPEEKEAWENTEYSERERNFIPQKYSALRKVPGYGESIRERFERSLDLYLAPRVRKNKLNIDPNSLIPELPSPKDLRPFPIRCSTIYAGHKGKVRTLSIDPSGLWLATGSDDGTVRVWEILTGREVYRTTLIDDEENPDYHIECIEWNPDANNGILAVAVGENIHLIVPPIFGYDIENNGKTKIEDGFGYDTFGTVKKSNLEVNENGDGDEDGENESAKNAVKKQVAQWNKPSQKQLEKDICITISCKKTVKKLSWHRKGDYFVTVQPDSGNTSVLIHQVSKHLTQSPFKKSKGIIMDAKFHPFKPQLFVCSQRYVRIYDLSQQILVKKLLPGARWLSKIDIHPRGDNLIASSFDKRVLWHDLDLASTPYKTLRYHEKAVRSVNFHKKLPLFSSAADDGTIHVFHATVYDDMMKNPMIVPLKKLTGHKVINSLGVLDAIWHPREAWLFSAGADNTARLWTT
binds: [3] | [4] | [5]

B4: Nsa3 (protein, UniProt P38779 1-376)
chain: MAKKSNSKKSTPVSTPSKEKKKVIEKKSSTAIPRERVIKAVNELIKFTSKPQDENNEEGNNGKKNLLEDDEEELKKDLQLIVVNNKSFTGTSKSFKLKLLNVKHSFYKPWKEASATAVKDFKVLLILKDSDIKKVSEDDLFDQLDSEGIKVDEIICGKDLKTVYKAYEARNAFISQFSLILADDSIVTSLPKLMGGKAYNKVETTPISIRTHANKEFSLTTLTNNIKKVYMNQLPVKLPRGTTLNVHLGNLEWLRPEEFVDNVELISEQLIKAYQIRSIFIKTNRSPVLPLYYNQDVLDELEAKKDKIEETHEDDMVTIDGVQVHLSTFNKGLMEIANPSELGSIFSKQINNAKKRSSSELEKESSESEAVKKAKS
binds: [3] | [4] | [5]

B5: Rlp7 (protein, UniProt P40693 1-322)
chain: MSSTQDSKAQTLNSNPEILLRKRRNADRTRIERQELAKKKREEQIKKKRSNKNKFVRAESIVAKTLATSREKERIKRVSILEDKKAKNETQHIASGKDFILKITEKANGAEENSVDLEETEEEEDDGLIREKTTYDGKPALLFIVRVRGPLAVNIPNKAFKILSLLRLVETNTGVFVKLTKNVYPLLKVIAPYVVIGKPSLSSIRSLIQKRGRIIYKGENEAEPHEIVLNDNNIVEEQLGDHGIICVEDIIHEIATMGESFSVCNFFLQPFKLNREVSGFGSLNRLRKIKQREAESRTRQFSNAATAPVIEVDIDSLLAKLN
binds: [3] | [4] | [5]

B6: Nop7 (protein, UniProt P53261 1-605)
chain: MRIKKKNTRGNARNFITRSQAVRKLQVSLADFRRLCIFKGIYPREPRNKKKANKGSTAPTTFYYAKDIQYLMHEPVLAKFREHKTFARKLTRALGRGEVSSAKRLEENRDSYTLDHIIKERYPSFPDAIRDIDDALNMLFLFSNLPSTNQVSSKIINDAQKICNQWLAYVAKERLVRKVFVSIKGVYYQANIKGEEVRWLVPFKFPENIPSDVDFRIMLTFLEFYSTLLHFVLYKLYTDSGLIYPPKLDLKKDKIISGLSSYILESRQEDSLLKLDPTEIEEDVKVESLDASTLKSALNADEANTDETEKEEEQEKKQEKEQEKEQNEETELDTFEDNNKNKGDILIQPSKYDSPVASLFSAFVFYVSREVPIDILEFLILSCGGNVISEAAMDQIENKKDIDMSKVTHQIVDRPVLKNKVAGRTYIQPQWIFDCINKGELVPANKYLPGEALPPHLSPWGDAIGYDPTAPVEEGEEEESESESESEDQVEEEDQEVVAGEEDDDDDEELQAQKELELEAQGIKYSETSEADKDVNKSKNKKRKVDEEEEEKKLKMIMMSNKQKKLYKKMKYSNAKKEEQAENLKKKKKQIAKQKAKLNKLDSKK
binds: [5]
